PubChem BioAssay AID504764 | Drosophila RNAi Screening Center – 2011

- Assay: 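Knock-downs that raise or lower a Notch target reporter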 (primary screen)
- Cell system: Drosophila Kc167 cells
- Knock-down reagent: long dsRNA against Drosophila genes
- Timing: about 5 days (4 days dsRNA, then 24 h after transfection)
- Treatment: transfection of constitutively active membrane-tethered Notch lacking the extracellular domain, read 24 h later
- Measured: 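Firefly luciferase from an E(spl)m3 reporter with active Notch, plus control-promoter and uninduced reporter wells for normalisation; unnormalised counts, duplicate wells a and b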
- Scale: induced reporter light, run 1, well a and induced reporter light, run 1, well b: higher = more light from the Notch target reporter with active Notch; control promoter light, run 1, well a and control promoter light, run 1, well b: higher = more light from the viral control promoter (cell number, transfection, viability); uninduced reporter light, run 1, well a: higher = more light from the Notch target reporter without active Notch
- Hit rule: 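Wells with low control signal or poorly matching duplicates excluded; duplicates averaged; per source plate, z beyond ±2 for induced/control log2 ratio or beyond ±1.8 for induced/uninduced marks a hit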
- Meaning of the calls: active = modifier hit (raised or lowered Notch signal); inactive = not a hit
The deposit covers about 22,000 reagents; shown is a random part of those with a known target gene and a result. Over the whole deposit, 403 (1.9%) got an active call. 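Unnormalised raw counts per well; ratio z-scores behind the hit calls and whether each hit raises or lowers signal are not deposited.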 Reagent sequences are not shown. Not stated in the record: the amount of reagent.

Gmer [DRSC04376] | induced reporter light, run 1, well a: 1.79e5; induced reporter light, run 1, well b: 1.86e5; control promoter light, run 1, well a: 2.03e5; control promoter light, run 1, well b: 1.94e5; uninduced reporter light, run 1, well a: 15820; Call: inactive
Mdr50 [DRSC07467] | induced reporter light, run 1, well a: 88440; induced reporter light, run 1, well b: 85310; control promoter light, run 1, well a: 1.28e5; control promoter light, run 1, well b: 1.25e5; uninduced reporter light, run 1, well a: 7805; Call: inactive
CG13405 [DRSC08310] | induced reporter light, run 1, well a: 95285; induced reporter light, run 1, well b: 87655; control promoter light, run 1, well a: 1.37e5; control promoter light, run 1, well b: 1.68e5; uninduced reporter light, run 1, well a: 5860; Call: inactive
Phax [DRSC07066] | induced reporter light, run 1, well a: 1.28e5; induced reporter light, run 1, well b: 1.22e5; control promoter light, run 1, well a: 1.83e5; control promoter light, run 1, well b: 1.71e5; uninduced reporter light, run 1, well a: 13365; Call: inactive
lok [DRSC03567] | induced reporter light, run 1, well a: 2.39e5; induced reporter light, run 1, well b: 2.05e5; control promoter light, run 1, well a: 1.35e5; control promoter light, run 1, well b: 1.57e5; uninduced reporter light, run 1, well a: 14488; Call: active
Rtnl2 [DRSC12609] | induced reporter light, run 1, well a: 89470; induced reporter light, run 1, well b: 88945; control promoter light, run 1, well a: 81145; control promoter light, run 1, well b: 82670; uninduced reporter light, run 1, well a: 6470; Call: inactive
I-2 [DRSC11194] | induced reporter light, run 1, well a: 43790; induced reporter light, run 1, well b: 70495; control promoter light, run 1, well a: 53720; control promoter light, run 1, well b: 76325; uninduced reporter light, run 1, well a: 3995; Call: inactive
tweek [DRSC02433] | induced reporter light, run 1, well a: 1.27e5; induced reporter light, run 1, well b: 1.59e5; control promoter light, run 1, well a: 1.39e5; control promoter light, run 1, well b: 1.81e5; uninduced reporter light, run 1, well a: 10955; Call: inactive
tweek [DRSC02434] | induced reporter light, run 1, well a: 1.09e5; induced reporter light, run 1, well b: 1.16e5; control promoter light, run 1, well a: 1.71e5; control promoter light, run 1, well b: 1.69e5; uninduced reporter light, run 1, well a: 8165; Call: active
tweek [DRSC02785] | induced reporter light, run 1, well a: 1.18e5; induced reporter light, run 1, well b: 1.20e5; control promoter light, run 1, well a: 88255; control promoter light, run 1, well b: 85545; uninduced reporter light, run 1, well a: 15188; Call: inactive
CG34445 [DRSC22404] | Call: inactive

2 consecutive entries already listed, for reference:
lok [DRSC03567] | induced reporter light, run 1, well a: 2.39e5; induced reporter light, run 1, well b: 2.05e5; control promoter light, run 1, well a: 1.35e5; control promoter light, run 1, well b: 1.57e5; uninduced reporter light, run 1, well a: 14488; Call: active
Rtnl2 [DRSC12609] | induced reporter light, run 1, well a: 89470; induced reporter light, run 1, well b: 88945; control promoter light, run 1, well a: 81145; control promoter light, run 1, well b: 82670; uninduced reporter light, run 1, well a: 6470; Call: inactive

The results go on:
CR14117 [DRSC10121] | induced reporter light, run 1, well a: 1.47e5; induced reporter light, run 1, well b: 1.32e5; control promoter light, run 1, well a: 1.76e5; control promoter light, run 1, well b: 1.16e5; uninduced reporter light, run 1, well a: 7250; Call: inactive
Jhedup [DRSC07173] | induced reporter light, run 1, well a: 52080; induced reporter light, run 1, well b: 49630; control promoter light, run 1, well a: 40225; control promoter light, run 1, well b: 46940; uninduced reporter light, run 1, well a: 5480; Call: inactive
GstO3 [DRSC10710] | induced reporter light, run 1, well a: 1.54e5; induced reporter light, run 1, well b: 1.52e5; control promoter light, run 1, well a: 1.21e5; control promoter light, run 1, well b: 1.42e5; uninduced reporter light, run 1, well a: 7325; Call: inactive
CG8172 [DRSC07089] | induced reporter light, run 1, well a: 1.83e5; induced reporter light, run 1, well b: 1.96e5; control promoter light, run 1, well a: 3.17e5; control promoter light, run 1, well b: 2.23e5; uninduced reporter light, run 1, well a: 18870; Call: inactive
CR30374 [DRSC05080] | induced reporter light, run 1, well a: 97840; induced reporter light, run 1, well b: 1.10e5; control promoter light, run 1, well a: 1.43e5; control promoter light, run 1, well b: 1.66e5; uninduced reporter light, run 1, well a: 4810; Call: inactive
Elal [DRSC16662] | induced reporter light, run 1, well a: 11550; induced reporter light, run 1, well b: 14800; control promoter light, run 1, well a: 12455; control promoter light, run 1, well b: 16310; uninduced reporter light, run 1, well a: 1200; Call: inactive
CG2218 [DRSC15428] | induced reporter light, run 1, well a: 1.91e5; induced reporter light, run 1, well b: 2.46e5; control promoter light, run 1, well a: 2.86e5; control promoter light, run 1, well b: 2.53e5; uninduced reporter light, run 1, well a: 15010; Call: inactive
